Laboratory results published in paper PMC3154960.
Changes are numbered by the printed parent chain. No constants are given. Whether binding was seen depends on the method and setting. Some results given as binding are weak or reduced against the parent protein; the word gives no strength.

The chains behind the UniProt entries cited, without tags or fusion partners.
UniProt P11978: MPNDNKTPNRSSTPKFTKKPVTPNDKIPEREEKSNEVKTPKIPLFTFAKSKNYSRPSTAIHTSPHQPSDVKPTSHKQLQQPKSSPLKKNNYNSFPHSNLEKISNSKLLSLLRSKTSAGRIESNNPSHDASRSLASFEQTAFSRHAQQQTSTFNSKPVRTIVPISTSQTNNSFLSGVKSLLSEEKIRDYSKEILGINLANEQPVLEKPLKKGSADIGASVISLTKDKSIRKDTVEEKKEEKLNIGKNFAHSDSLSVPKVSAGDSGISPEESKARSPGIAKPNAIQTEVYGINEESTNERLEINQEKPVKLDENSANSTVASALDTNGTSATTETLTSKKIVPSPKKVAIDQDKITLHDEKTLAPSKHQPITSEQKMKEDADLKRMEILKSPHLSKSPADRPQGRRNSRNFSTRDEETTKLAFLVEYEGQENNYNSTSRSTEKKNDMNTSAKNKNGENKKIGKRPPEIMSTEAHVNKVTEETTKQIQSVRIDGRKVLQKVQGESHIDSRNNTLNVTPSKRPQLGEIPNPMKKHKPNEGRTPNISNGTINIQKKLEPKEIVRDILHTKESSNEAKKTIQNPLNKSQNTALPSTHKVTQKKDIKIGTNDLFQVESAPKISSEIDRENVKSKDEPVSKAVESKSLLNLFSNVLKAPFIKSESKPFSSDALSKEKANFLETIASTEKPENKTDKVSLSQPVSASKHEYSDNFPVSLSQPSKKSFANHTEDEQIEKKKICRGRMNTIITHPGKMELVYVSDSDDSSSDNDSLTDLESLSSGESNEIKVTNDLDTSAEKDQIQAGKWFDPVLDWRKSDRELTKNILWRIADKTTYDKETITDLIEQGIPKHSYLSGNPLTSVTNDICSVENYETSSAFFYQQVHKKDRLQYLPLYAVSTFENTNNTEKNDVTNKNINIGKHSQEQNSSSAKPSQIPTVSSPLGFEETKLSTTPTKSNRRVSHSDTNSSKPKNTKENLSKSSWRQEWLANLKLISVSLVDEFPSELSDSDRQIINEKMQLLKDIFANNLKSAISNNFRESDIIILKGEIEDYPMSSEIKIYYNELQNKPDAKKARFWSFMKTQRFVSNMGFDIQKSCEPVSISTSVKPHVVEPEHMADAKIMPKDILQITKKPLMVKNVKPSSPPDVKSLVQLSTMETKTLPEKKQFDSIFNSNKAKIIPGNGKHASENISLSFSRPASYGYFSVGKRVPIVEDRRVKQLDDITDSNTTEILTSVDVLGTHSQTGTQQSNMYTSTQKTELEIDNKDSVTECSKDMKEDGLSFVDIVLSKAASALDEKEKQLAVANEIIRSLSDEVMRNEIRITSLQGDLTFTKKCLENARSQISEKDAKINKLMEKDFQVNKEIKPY

Legend:
[1] = target: T1, yku80-p1 BAIT (S. cerevisiae) (UniProt Q04437); assay: two-hybrid; pEG202-based BAIT (YKU80 or yku80-p1), pJG4-5-based PREY (full-length Sir4), LEU2 reporter, growth on Gal –Leu plates; strain YAB327 (yku70-Δ derivative of EGY48) carrying YKU70, yku70-R456E, yku70-p1, yku70-K422E or pRS416
T1 sequence: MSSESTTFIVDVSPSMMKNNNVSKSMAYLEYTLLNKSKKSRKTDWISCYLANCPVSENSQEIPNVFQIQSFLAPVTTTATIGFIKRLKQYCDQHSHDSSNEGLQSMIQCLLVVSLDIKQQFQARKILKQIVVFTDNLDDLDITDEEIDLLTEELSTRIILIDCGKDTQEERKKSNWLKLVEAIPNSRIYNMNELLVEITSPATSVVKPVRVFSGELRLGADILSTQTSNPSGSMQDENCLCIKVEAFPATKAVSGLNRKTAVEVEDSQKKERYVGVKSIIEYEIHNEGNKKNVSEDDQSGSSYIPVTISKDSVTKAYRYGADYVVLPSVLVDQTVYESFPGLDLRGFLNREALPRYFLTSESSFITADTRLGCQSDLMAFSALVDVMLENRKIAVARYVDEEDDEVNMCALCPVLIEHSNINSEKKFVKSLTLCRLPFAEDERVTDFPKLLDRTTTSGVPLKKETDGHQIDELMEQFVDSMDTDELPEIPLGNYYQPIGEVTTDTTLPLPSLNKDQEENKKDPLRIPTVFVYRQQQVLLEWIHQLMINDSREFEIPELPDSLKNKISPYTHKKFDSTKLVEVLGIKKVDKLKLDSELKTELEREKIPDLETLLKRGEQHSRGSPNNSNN

[2] = target: T2, YKU80 BAIT (S. cerevisiae) (UniProt Q04437); assay: as above
T2 sequence: T1 sequence with D400S, E401K, E402K, D404S

## SIR4 PREY (from UniProt P11978 1-1358)
[1]
  binding: binds
[2]
  binding: binds
